Test results taken from patent publication US20060073149A1.
Results are given in words; binding and its absence hold for the method and conditions named. Some binding calls cover weakened binding; strength is not graded here.

Protein sequences, listed by entry. Tags and fused reporters are not part of them. Residues count along the entry.
UniProt P05067, residues 672-711: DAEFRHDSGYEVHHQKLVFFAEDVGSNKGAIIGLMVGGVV

Target: soluble Aβ (UniProt P05067)
Assay: worded comparison of affinities; method not given

B1: humanized 266 antibody (antibody, human IgG1, kappa, V domains shown)
VH: EVQLVESGGGLVQPGGSLRLSCAASGFTFSRYSMSWVRQAPGKGLELVAQINSVGNSTYYPDTVKGRFTISRDNAKNTLYLQMNSLRAEDTAVYYCASGDYWGQGTLVTVSS
VL: DVVMTQSPLSLPVTLGQPASISCRSSQSLIYSDGNAYLHWFLQKPGQSPRLLIYKVSNRFSGVPDRFSGSGSGTDFTLKISRVEAEDVGVYYCSQSTHVPWTFGQGTKVEIKR
With B1 the binding was “binds”.
